Values of other authors in patent publication US20210405025A1, “IDENTIFYING COMPOUNDS FOR TREATING CANCER AND USE THEREOF” (THE UAB RESEARCH FOUNDATION, priority 2018, published 2021).

Conditions: read-out: In vivo cMax; plasma concentration achievable in vivo at the FDA-recommended dose and schedule; cited from earlier work

Structure (SMILES): CC(C)c1c(C(=O)Nc2ccccc2)c(-c2ccccc2)c(-c2ccc(F)cc2)n1CC[C@@H](O)C[C@@H](O)CC(=O)[O-].CC(C)c1c(C(=O)Nc2ccccc2)c(-c2ccccc2)c(-c2ccc(F)cc2)n1CC[C@@H](O)C[C@@H](O)CC(=O)[O-].[Ca+2] [ATORVASTATIN CALCIUM]
- Cmax: 10 nM
